Measured data: PubChem BioAssay AID1259405 (NCATS, 2018)
This is one part, drawn at random, of about 50,000 reagents. About 4,000 of all reagents (8%) were called active. 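Mouse siRNA library applied to hamster cells; one well for each siRNA.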 Reagents against one gene are numbered here.

Test: 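Silenced genes that increase secreted GFP made by CHO cells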 (primary screen)
Cells: Chinese hamster CHO-K1 ovary cells with stable secreted eGFP expression
Knock-down reagent: single siRNA against mouse genes, 0.8 pmol siRNA per well (2 µl of 400 nM stock)
Time to read-out: 3 days
Measurement: 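Percent of the per-plate non-targeting control median for intracellular GFP per well by laser scanning cytometry and for cell viability by ATP luminescence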
Reading the numbers: GFP, % of control: higher = more GFP per well, higher productivity; viability (ATP), % of control: higher = more viable cells (more ATP)
Active means: 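Called active when intracellular GFP, relative to negative control, is at or above 120%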

gene knocked down	siRNA no.	GFP, % of control	viability (ATP), % of control	call
S100a1	1	66.6	107	inactive
S100a1	2	77.8	78.3	inactive
Smndc1	1	78.8	95.7	inactive
Smndc1	2	69.4	79.2	inactive
Smndc1	3	52.4	66	inactive
Rasl12	1	106	73.1	inactive
Rasl12	2	88.6	74.1	inactive
Rasl12	3	39.2	55.1	inactive
Actr6	1	94.6	61.1	inactive
Actr6	2	61.6	57.9	inactive
Becn1	1	112	89.3	inactive
Becn1	2	0	60.8	inactive
Becn1	3	87.1	97.2	inactive
Dld	1	68.3	80.8	inactive
Dld	2	129	81.1	active
Dld	3	59.9	62.1	inactive
Tigar	1	26.9	22.8	inactive
Tigar	2	32.8	69.3	inactive
Tigar	3	70.3	98.9	inactive
Mgrn1	1	88.4	79.6	inactive
Mgrn1	2	96.2	89.8	inactive
Mgrn1	3	85.9	91.5	inactive
Tmem14c	1	46.6	46.6	inactive
Tmem14c	2	73.7	146	inactive
Tmem14c	3	114	120	inactive
Metrn	1	80.8	86.3	inactive
Metrn	2	78.7	80.8	inactive
Metrn	3	78.6	60.3	inactive
Tmem208	1	42.1	82.9	inactive
Tmem208	2	31.8	84.1	inactive
Tmem208	3	43.4	70.4	inactive
Sepsecs	1	48.7	59.3	inactive
Sepsecs	2	68	59.4	inactive
Sepsecs	3	85.9	72	inactive

Records above whose target name starts with S or s (8):
gene knocked down	siRNA no.	GFP, % of control	viability (ATP), % of control	call
S100a1	1	66.6	107	inactive
S100a1	2	77.8	78.3	inactive
Smndc1	1	78.8	95.7	inactive
Smndc1	2	69.4	79.2	inactive
Smndc1	3	52.4	66	inactive
Sepsecs	1	48.7	59.3	inactive
Sepsecs	2	68	59.4	inactive
Sepsecs	3	85.9	72	inactive
